In assay [1] the target is full-length cubam purified from porcine kidney (porcine (endogenous in kidney)) (UniProt F1RWC3+F1SAM7). Nature of the assay: negative-stain electron microscopy; purified porcine cubam in the presence of Ca2+ (20 mM Tris–HCl pH 7.6, 150 mM KCl, 5 mM CaCl2, 0.3% CHAPS); 2% uranyl formate; single-stem and double-stem forms; both purified.
The target in assay [2] is human intrinsic factor in complex with vitamin B12 (IF-B12) (human) (UniProt P27352). Nature of the assay: affinity chromatography; human IF-B12 immobilised on a column; solubilised porcine kidney membranes applied in 10 mM HEPES, 140 mM NaCl, 2 mM CaCl2, 1 mM MgCl2, 0.3% CHAPS; bound proteins eluted with 10 mM EDTA; only the target purified.
Assay [3] has as its target T1, AMN(20–357) T41I mutant (human) (UniProt Q9BXJ7).
T1 sequence: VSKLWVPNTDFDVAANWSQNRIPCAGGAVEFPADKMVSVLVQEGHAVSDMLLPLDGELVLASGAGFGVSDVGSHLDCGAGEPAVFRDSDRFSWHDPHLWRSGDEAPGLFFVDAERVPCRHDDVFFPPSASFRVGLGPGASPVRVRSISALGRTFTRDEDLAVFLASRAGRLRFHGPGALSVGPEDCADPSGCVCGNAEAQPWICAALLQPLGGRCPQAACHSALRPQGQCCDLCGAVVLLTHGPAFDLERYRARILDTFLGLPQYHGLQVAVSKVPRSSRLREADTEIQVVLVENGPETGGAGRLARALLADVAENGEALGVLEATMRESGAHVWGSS
Nature of the assay: pull-down; thioredoxin–AMN(20–357) T41I and cubilin(26–135) co-expressed in E. coli ShuffleT7; lysate supernatant loaded on a His-tag purification column (20 mM HEPES pH 7.6, 500 mM NaCl, 5 mM imidazole, 10% glycerol), imidazole gradient; eluate blotted with AMN 17-44-3 and cubilin 17-44-5.

Sequences of proteins named here, by UniProt entry; tags and fusion partners are left off. A change or cut given only in a name is not applied to a line headed by its entry. Residues count along the entry.
UniProt F1RWC3: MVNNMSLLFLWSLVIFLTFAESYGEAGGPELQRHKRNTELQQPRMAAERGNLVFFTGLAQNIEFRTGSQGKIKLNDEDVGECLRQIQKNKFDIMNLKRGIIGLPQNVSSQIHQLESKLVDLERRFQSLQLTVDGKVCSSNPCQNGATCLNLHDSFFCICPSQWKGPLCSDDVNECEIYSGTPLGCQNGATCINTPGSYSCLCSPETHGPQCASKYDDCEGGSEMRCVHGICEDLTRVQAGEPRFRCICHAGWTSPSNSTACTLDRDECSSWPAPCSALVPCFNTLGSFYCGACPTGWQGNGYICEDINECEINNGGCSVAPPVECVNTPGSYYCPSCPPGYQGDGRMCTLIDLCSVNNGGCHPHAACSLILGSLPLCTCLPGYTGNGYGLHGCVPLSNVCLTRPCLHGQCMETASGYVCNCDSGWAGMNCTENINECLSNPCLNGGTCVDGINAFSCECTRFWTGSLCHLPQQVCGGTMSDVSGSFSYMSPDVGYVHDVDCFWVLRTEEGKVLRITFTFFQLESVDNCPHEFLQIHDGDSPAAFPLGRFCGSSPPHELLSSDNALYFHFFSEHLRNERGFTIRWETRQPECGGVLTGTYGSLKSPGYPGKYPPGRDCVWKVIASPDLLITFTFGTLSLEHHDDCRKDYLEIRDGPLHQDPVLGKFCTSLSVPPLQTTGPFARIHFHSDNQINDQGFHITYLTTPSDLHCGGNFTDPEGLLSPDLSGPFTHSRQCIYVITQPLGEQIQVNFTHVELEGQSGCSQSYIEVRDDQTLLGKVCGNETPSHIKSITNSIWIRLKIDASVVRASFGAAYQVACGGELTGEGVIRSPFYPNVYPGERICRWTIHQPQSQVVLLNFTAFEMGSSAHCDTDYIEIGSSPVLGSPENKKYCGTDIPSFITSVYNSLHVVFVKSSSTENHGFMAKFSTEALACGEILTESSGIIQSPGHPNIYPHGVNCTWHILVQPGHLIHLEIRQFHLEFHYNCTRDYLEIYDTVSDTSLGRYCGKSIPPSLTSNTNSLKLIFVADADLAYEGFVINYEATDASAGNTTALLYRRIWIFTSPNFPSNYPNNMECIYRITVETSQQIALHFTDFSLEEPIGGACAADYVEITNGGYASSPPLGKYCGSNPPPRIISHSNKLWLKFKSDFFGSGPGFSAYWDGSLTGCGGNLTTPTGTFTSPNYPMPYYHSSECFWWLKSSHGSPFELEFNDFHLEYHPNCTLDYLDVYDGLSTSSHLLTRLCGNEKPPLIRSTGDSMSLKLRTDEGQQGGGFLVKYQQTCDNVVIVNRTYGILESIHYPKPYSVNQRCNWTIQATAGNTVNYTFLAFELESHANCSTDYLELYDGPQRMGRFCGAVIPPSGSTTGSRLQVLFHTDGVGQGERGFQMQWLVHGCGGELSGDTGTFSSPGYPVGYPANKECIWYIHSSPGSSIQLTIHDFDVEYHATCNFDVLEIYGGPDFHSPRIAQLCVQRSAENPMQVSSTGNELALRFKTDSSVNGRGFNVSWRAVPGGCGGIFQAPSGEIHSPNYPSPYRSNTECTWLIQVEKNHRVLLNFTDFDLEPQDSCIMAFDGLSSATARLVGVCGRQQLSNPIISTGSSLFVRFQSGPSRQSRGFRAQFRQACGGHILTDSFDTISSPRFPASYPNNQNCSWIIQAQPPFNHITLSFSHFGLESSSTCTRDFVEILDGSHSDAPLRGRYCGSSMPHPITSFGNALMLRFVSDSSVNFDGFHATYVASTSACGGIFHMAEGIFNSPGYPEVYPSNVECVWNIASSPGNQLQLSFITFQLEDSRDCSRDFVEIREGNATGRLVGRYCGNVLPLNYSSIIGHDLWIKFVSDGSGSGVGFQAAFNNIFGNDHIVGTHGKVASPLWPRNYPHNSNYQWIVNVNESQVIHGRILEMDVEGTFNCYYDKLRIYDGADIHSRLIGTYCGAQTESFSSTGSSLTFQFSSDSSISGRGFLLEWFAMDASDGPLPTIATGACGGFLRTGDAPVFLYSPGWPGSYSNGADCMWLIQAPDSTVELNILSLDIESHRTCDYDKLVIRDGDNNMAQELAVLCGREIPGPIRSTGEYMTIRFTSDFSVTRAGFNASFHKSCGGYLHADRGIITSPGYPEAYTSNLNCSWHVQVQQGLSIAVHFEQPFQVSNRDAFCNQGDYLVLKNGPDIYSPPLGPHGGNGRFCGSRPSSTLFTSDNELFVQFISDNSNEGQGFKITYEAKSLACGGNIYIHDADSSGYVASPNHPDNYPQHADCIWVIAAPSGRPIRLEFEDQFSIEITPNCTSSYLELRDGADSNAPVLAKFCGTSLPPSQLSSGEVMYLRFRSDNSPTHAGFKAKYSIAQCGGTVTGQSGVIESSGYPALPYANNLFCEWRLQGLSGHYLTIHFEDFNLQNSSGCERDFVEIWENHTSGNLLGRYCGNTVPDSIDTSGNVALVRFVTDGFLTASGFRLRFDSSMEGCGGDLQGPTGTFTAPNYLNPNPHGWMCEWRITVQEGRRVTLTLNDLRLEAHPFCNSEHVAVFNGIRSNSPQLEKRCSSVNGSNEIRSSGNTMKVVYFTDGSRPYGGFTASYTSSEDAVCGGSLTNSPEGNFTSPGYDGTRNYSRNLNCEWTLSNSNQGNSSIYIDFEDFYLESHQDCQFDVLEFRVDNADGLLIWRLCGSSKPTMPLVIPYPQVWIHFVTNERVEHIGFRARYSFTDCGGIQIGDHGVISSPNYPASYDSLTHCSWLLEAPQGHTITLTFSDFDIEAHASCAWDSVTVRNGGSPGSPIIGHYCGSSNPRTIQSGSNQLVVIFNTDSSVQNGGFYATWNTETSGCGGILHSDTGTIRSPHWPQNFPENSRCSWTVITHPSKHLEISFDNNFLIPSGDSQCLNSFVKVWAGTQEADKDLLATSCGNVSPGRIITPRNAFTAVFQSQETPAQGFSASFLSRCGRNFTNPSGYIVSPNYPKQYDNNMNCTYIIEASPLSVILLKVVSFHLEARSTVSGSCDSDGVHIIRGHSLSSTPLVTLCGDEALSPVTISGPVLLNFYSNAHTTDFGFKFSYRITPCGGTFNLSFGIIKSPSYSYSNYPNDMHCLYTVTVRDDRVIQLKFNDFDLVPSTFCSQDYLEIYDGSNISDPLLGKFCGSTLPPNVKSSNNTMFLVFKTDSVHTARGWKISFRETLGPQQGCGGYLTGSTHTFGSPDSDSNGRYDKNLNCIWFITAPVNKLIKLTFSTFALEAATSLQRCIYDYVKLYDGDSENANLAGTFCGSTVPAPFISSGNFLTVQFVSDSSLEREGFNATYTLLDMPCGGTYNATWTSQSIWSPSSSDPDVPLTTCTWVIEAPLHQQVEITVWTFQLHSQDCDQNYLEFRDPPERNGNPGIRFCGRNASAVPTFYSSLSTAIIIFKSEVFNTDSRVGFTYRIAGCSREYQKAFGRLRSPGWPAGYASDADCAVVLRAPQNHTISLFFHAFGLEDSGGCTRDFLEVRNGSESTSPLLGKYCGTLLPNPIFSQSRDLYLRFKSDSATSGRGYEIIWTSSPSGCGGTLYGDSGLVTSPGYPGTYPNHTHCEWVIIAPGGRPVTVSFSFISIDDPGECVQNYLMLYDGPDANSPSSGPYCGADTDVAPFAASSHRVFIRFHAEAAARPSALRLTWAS
UniProt F1SAM7: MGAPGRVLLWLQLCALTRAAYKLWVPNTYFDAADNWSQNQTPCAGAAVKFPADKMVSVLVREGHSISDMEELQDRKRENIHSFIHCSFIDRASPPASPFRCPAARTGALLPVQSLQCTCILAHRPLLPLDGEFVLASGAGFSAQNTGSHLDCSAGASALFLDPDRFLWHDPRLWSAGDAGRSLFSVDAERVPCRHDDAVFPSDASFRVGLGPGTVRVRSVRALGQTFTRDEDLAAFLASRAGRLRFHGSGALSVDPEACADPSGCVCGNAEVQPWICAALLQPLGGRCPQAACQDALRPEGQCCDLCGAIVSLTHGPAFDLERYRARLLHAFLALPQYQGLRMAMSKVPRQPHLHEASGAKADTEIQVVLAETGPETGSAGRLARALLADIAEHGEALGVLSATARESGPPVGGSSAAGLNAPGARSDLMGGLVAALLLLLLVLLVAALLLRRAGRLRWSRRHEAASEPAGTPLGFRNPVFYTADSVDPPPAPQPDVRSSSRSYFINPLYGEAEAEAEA
UniProt P27352, residues 19-417: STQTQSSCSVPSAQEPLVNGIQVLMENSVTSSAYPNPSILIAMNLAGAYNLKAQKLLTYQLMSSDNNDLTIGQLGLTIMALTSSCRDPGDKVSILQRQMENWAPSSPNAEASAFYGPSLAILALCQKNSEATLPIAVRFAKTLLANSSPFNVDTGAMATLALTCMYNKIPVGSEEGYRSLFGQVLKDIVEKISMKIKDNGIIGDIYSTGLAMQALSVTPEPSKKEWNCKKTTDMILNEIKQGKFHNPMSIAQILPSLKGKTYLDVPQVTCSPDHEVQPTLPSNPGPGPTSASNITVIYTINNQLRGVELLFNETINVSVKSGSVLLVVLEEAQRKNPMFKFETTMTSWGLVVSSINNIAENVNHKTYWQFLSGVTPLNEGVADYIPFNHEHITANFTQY

Assay [4] concerns the target T2, ectodomain of human AMN (residues 20–357) (human) (UniProt Q9BXJ7).
T2 sequence: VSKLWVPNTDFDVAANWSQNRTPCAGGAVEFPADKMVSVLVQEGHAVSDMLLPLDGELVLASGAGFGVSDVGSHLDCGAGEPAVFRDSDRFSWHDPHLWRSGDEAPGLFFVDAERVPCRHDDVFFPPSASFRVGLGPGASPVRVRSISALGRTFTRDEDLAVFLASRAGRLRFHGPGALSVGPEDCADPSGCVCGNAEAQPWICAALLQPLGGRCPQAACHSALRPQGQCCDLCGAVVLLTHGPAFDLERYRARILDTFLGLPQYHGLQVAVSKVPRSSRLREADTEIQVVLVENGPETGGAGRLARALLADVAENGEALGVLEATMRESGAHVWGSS
Briefly: crystal structure; AMN(20–357) and cubilin(26–135) co-expressed in E. coli and co-purified; crystals at 4 °C, sitting drop, 1.5 M magnesium sulphate, 0.1 M MES pH 5.5; 2.3 Å, SAD phasing; both purified.

No constants are given. Whether binding was seen depends on the method and setting. For some of these results: In cells and extracts the contact can be indirect. Some entries that bind do so weakly or less than the wild type.

As for “full-length cubam purified from porcine kidney (from UniProt F1RWC3 37-3625; F1SAM7 20-519) (complex)”, the binding entry in assay [1] and in assay [2] was “binds” in each case.

B1: N-terminal fragment of cubilin (residues 26–135) (domain or fragment, human, UniProt O60494 26-135, looked up)
chain: GELELQRQKRSINLQQPRMATERGNLVFLTGSAQNIEFRTGSLGKIKLNDEDLSECLHQIQKNKEDIIELKGSAIGLPQNISSQIYQLNSKLVDLERKFQGLQQTVDKKV
notes: The methods name 'human' before AMN only ('human AMN ... and the N-terminal fragment of cubilin'); Cloned into the NdeI site of multiple cloning site 2 of pACYCDuet-1; also called trimeric cubilin; source: also in E. coli lysate / His-tag column eluate with the AMN T41I mutant
On to B1, for which the binding result in assay [3] and in assay [4] was “binds” in each case.
